Where a sequence shows no end group, the ends are not given.
Test: peptide made by a vendor
Conditions: whole synthesis, scale of the general procedure 5 micromole

**Q.** For WRWRKRWRKWRWRKRWRK, which “final HPLC purity” value is on record?
**A.** >80%
